# In PubChem BioAssay AID504444 (National Center for Advancing Translational Sciences (NCATS), 2011):
# The whole screen tested about 360,000 compounds, of which about 7,500 (2.1%) were called active. The shares of active, inactive and inconclusive entries below differ from those in the screen. Calls come from the whole dose curve; as a rule, active = well fitted inhibition curve with a large enough effect; inconclusive = small, poorly fitted or top-dose-only effect, or effect the other way; inactive = flat fitted curve, though single readings scatter. A potency beside an inconclusive call is a rough fit, not a confirmed value.
# Test: Nrf2 qHTS screen for inhibitors; note: nearly all actives have a fitted effect of over 60% in size
# Conditions: A549 ARE-Fluc reporter, luciferase luminescence, 18-24 h; series mostly up to 46 µM
# Procedure, shortened: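 A549 ARE_Fluc cells, 5000/well, 5% FBS OPTI-MEM; compounds in dose-response, 18-24 h at 37 °C/5% CO2; CellTiter-Fluor viability read (Ex 405/Em 525), then BugLite luciferase luminescence = Nrf2 activity.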
# Potency is the fitted concentration of half-maximal effect.
row,SMILES,Potency
1,CC(=O)O[C@H]1C(=O)[C@]2(C)[C@H]([C@H](OC(=O)c3ccccc3)[C@]3(O)C[C@H](OC(=O)[C@H](O)[C@@H](NC(=O)c4ccccc4)c4ccccc4)C(C)=C1C3(C)C)[C@]1(OC(C)=O)CO[C@@H]1C[C@@H]2O,inactive
2,Cc1cc(C)n(CC(O)COc2ccc(C(C)C)c(C)c2)n1 (stereo unspecified),"inconclusive: 16.4 µM [activator, partial curve, poor fit]"
3,COc1ccccc1NC(=O)N1CCc2c([nH]c3ccccc23)C1C(F)(F)F (stereo unspecified),"inconclusive: 20.6 µM [falling, single point]"
4,O=C(CCS(=O)(=O)c1cccs1)N1CCCC1,"inconclusive: 5.17 µM [activator, full curve]"
5,NC(=O)c1ccc2c(=O)n3c(-c4cc(Cl)c(N)c(Cl)c4)csc3nc2c1,"inconclusive: 7.31 µM [falling, partial curve]"
6,O=C(Cn1cc(C(F)(F)F)ccc1=O)Nc1ccccc1,"inconclusive: 25.9 µM [activator, partial curve, poor fit]"
7,CCn1c(CCNC(=O)c2cccs2)nnc1SCC(=O)Nc1cccc(Cl)c1,inactive
8,O=C(Nn1c(SCc2ccc([N+](=O)[O-])cc2)nc2ccccc2c1=O)c1ccc(F)cc1,"inconclusive: 0.58 µM [activator, full curve]"
9,COc1ccccc1C(=O)Nc1ccc2c(c1)nc1n2CCN(C2CCCCC2)C1,inactive
10,COc1ccc(OC)c2sc(NC(=O)CCS(=O)(=O)c3ccccc3)nc12,"inconclusive: 11.6 µM [falling, partial curve, poor fit]"
11,CCc1ccc(N(C(C)=O)c2nc(CCl)cs2)cc1,"inconclusive: 29.1 µM [activator, single point]"
12,CN(CC(=O)Nc1ccc(N2CCOCC2)cc1)C(=O)CCCOc1ccc(Cl)cc1Cl,"inconclusive: 29.1 µM [falling, single point]"
13,CNC(=S)Nc1ccc(-c2nc3ccc(C)cc3s2)cc1,"inconclusive: 0.92 µM [activator, full curve]"
14,C/C(=N\Nc1nc(-c2ccccc2)cs1)c1cccs1,"inconclusive: 4.61 µM [activator, full curve]"
15,Cc1ccccc1NC(=O)N1CCC(CN2CCCC2)CC1,"inconclusive: 6.51 µM [activator, partial curve, poor fit]"
16,Cc1ccc(OCC(=O)OCc2cc(=O)n3c(C)csc3n2)cc1,"inconclusive: 16.4 µM [activator, partial curve, poor fit]"
17,O=C(NCC(c1ccco1)N1CCCC1)c1cccc(NS(=O)(=O)c2ccccc2)c1 (stereo unspecified),"inconclusive: 1.16 µM [falling, partial curve, poor fit]"
18,CCN1CCN(C(=S)c2ccc(OCC(=O)Nc3ccc(OC)cc3)cc2)CC1,"inconclusive: 23.1 µM [falling, single point]"
19,O=C(COC(=O)c1ccc(S(=O)(=O)N2CCCC2)cc1)NCc1cccs1,"inconclusive: 16.4 µM [activator, single point]"
20,CCc1ccc(NC(=O)c2cc3c(C)nc4ccccc4c3o2)cc1,"inconclusive: 10.3 µM [falling, partial curve]"
21,COc1ccc(Cl)cc1C(=O)Nc1ccc(S(N)(=O)=O)cc1,"inconclusive: 20.6 µM [falling, partial curve, poor fit]"
22,COc1ccc(CCn2c(=N)c(C(=O)NCC3CCCO3)cc3c(=O)n4cccc(C)c4nc32)cc1 (stereo unspecified),"inconclusive: 29.1 µM [falling, single point]"

row,SMILES,Potency
1,COc1ccc(/C=N/NC(=O)c2nc(-c3ccccc3)cc(-c3ccccc3)n2)cc1,"inconclusive: 23.1 µM [falling, single point]"
2,CC1=C(Nc2ccc(C(=O)O)cc2)C(=O)c2ccccc2C1=O,active: 23.1 µM
3,Cc1ncsc1CCSc1n[nH]c(=O)n1-c1ccccc1,"inconclusive: 29.1 µM [falling, single point]"
4,CC(=NCc1cccnc1)C1=C(O)c2ccccc2C1=O,"inconclusive: 0.92 µM [falling, full curve, poor fit]"
5,Cc1ccc(CNC(=O)Cn2c([N+](=O)[O-])cnc2C)cc1,"inconclusive: 25.9 µM [falling, partial curve, poor fit]"
6,CCc1cccc(-n2c(=O)c3cccnc3n2CC(=O)Nc2ccccc2C(=O)OC)c1,"inconclusive: 18.4 µM [activator, partial curve]"
7,CCOC(=O)c1ccc(N2CCN(c3ccccc3F)CC2)c(NC(=O)Nc2ccccc2)c1,"inconclusive: 29.1 µM [falling, single point]"
8,Cc1sc2ncnc(NCC(O)c3ccccc3)c2c1C (stereo unspecified),"inconclusive: 29.1 µM [falling, single point]"
9,CSc1ncccc1C(=O)Nc1ccc(S(=O)(=O)N2CCCC2)cc1,"inconclusive: 23.1 µM [falling, single point]"
10,O=C(N/N=C/c1c(O)ccc2ccccc12)c1cccc(C(F)(F)F)c1,"inconclusive: 20.6 µM [falling, single point]"
11,O=C(c1ccc2c(=O)n(-c3ccccc3)c(=O)[nH]c2c1)N1CCN(c2ccc(F)cc2)CC1,"inconclusive: 20.6 µM [falling, partial curve]"
12,Cc1ccc2oc(C(=O)Nc3sc4c(c3C(=O)NCc3ccccc3)CCCC4)cc(=O)c2c1,inactive
13,O=C(COc1ccccc1Cl)Nc1ccc(N2CCN(C(=O)c3ccccc3)CC2)cc1,"inconclusive: 1.84 µM [falling, full curve, poor fit]"
14,Cc1ccc(-n2nnnc2SCC(=O)N2CCc3ccccc3C2)c(C)c1,active: 16.4 µM
15,CCCCC1OC23CCCCC2C(C#N)(C(=N)O3)C1(C#N)C#N (stereo unspecified),inactive
16,Cc1ccccc1C(=O)Nc1ccc(Cl)cn1,"inconclusive: 6.51 µM [activator, partial curve, poor fit]"
17,COc1ccccc1OCc1nnc(SCC(=O)Nc2ccc(C)cc2)n1C,inactive
18,CCn1nnnc1SCC(=O)Nc1ccc2c(c1)OCCO2,"inconclusive: 20.6 µM [activator, partial curve]"
19,Cc1ccc(NC(=O)CCN2CCCCC2)cc1,"inconclusive: 7.31 µM [falling, full curve, poor fit]"
20,O=C(OCCOc1ccc(Cl)cc1)c1cc(S(=O)(=O)N2CCCCC2)ccc1N1CCOCC1,active: 8.2 µM
21,CCOc1ccc(-c2nnc(NC3=NCCCCC3)o2)cc1,"inconclusive: 0.731 µM [activator, full curve]"
22,CCOC(=O)c1c(NC(=O)CSc2nc3c(c(=O)n(C)c(=O)n3C)n2C(C)C)sc(C)c1C,inactive

# Three compounds drawn at random from the list so far:
row,SMILES,Potency
16,Cc1ccccc1C(=O)Nc1ccc(Cl)cn1,"inconclusive: 6.51 µM [activator, partial curve, poor fit]"
12,Cc1ccc2oc(C(=O)Nc3sc4c(c3C(=O)NCc3ccccc3)CCCC4)cc(=O)c2c1,inactive
4,CC(=NCc1cccnc1)C1=C(O)c2ccccc2C1=O,"inconclusive: 0.92 µM [falling, full curve, poor fit]"

# The listing continues:

row,SMILES,Potency
1,S=C(Nc1ccccc1)c1ccccn1,"inconclusive: 16.4 µM [activator, partial curve]"
2,Cc1cccc(CSC2=CS(=O)(=O)c3ccccc3N2)c1,"inconclusive: 11.6 µM [falling, single point]"
3,COCCCNC(=O)C1CCN(c2ncnc3c2nc2n3CCCCC2)CC1,inactive
4,O=C(NCc1ccco1)c1cccn2c(=O)c3c4c(sc3nc12)CCCC4,"inconclusive: 8.2 µM [falling, partial curve, poor fit]"
5,COc1ccc(N2C3=C(CC4=C2CC(C)(C)CC4=O)C(=O)CC(C)(C)C3)cc1,"inconclusive: 18.4 µM [falling, single point]"
6,Cc1c2cnn(CC(=O)NCc3ccc(F)cc3)c(=O)c2c(C)n1Cc1ccccc1Cl,inactive
7,COc1cccc(Cn2cnc3c2c(=O)n(C)c(=O)n3C)c1,active: 13 µM
8,CC(c1ccccc1)N(CCC(c1ccccc1)C1CCOC(C)(C)C1)C(=O)c1ccco1 (stereo unspecified),inactive
9,O=C1CN(C(=O)c2ccccc2C(=O)O)c2ccccc2N1,inactive
10,COC(=O)c1ccc(C2/C(=C(/O)c3ccc(OC)cc3)C(=O)C(=O)N2Cc2ccco2)cc1 (stereo unspecified),"inconclusive: 29.1 µM [activator, partial curve, poor fit]"
11,O=C(N/N=C/c1cc2c(cc1Br)OCO2)c1ccccn1,"inconclusive: 8.2 µM [activator, partial curve]"
12,Cc1cc2oc3ccc(NCCCn4ccnc4)cc3c(=O)c2cc1C,"inconclusive: 0.82 µM [activator, partial curve, poor fit]"
13,CC(O)[C@@]1(O)CC[C@H]2[C@@H]3CC[C@H]4C[C@@H](O)CC[C@]4(C)C3=CC[C@@]21C (stereo partly specified),inactive
14,Cc1cc(C)c(NC(=O)C2CCCN2CCOC(=O)c2cccc([N+](=O)[O-])c2)c(C)c1 (stereo unspecified),"inconclusive: 6.51 µM [activator, partial curve, poor fit]"
15,OC[C@@H]1[C@@H](c2ccccc2)C(c2cccc(Cl)c2)=NN1c1ccccc1,inactive
16,CC[n+]1c(/C=C2/C=C(C)CC(C)(C)C2)sc2ccc(OC)cc21,"inconclusive: 20.6 µM [falling, single point]"
17,Cc1cc(NC(=O)CC2CCCC2)ccc1Br,"inconclusive: 4.61 µM [activator, single point]"
18,Cc1ccccc1OCC(=O)OCC(=O)Nc1cc(S(=O)(=O)N2CCCCC2)ccc1Cl,inactive
19,CCC1C(=O)n2nc(-c3ccccc3)cc2N=C1C (stereo unspecified),"inconclusive: 10.3 µM [activator, partial curve]"
20,Cc1c(C(=O)Nc2ccccc2)cn2c(nc3ccccc32)c1C#N,"inconclusive: 11.6 µM [falling, partial curve, poor fit]"
21,Cc1ccc(C(=O)Oc2ccccc2N2C(=O)C3CCCCC3C2=O)cc1 (stereo unspecified),active: 1.3 µM
22,Cc1cccc(C(=O)Nc2ccc(N3CCN(S(C)(=O)=O)CC3)cc2)c1,"inconclusive: 0.58 µM [activator, full curve]"
